Measurements: patent publication EP1136554A1, “ATP binding cassette transporter 1 (ABC1) gene polymorphisms and uses thereof for the diagnosis and treatment of lipid disorders, cardiovascular diseases and inflammatory diseases” (Bayer Aktiengesellschaft, priority 2000, dated 2001)
Entries after “also recorded” stand apart in the source; their conditions may differ. At least one compound was matched to its structure with a doubt left.

Tests used:
[1] = tested on: mononuclear phagocytes; assay: ApoA-I mediated cellular phospholipid efflux (3H-choline labelled phospholipids); assay type: cell-based, Human; details: forskolin pretreatment; wild type versus 596A/A or 2589G/G; result in words
Experimental: (§1) Cellular Lipid Efflux. Human peripheral blood cells were isolated from lithium-heparin treated blood samples of adult, healthy volunteers. The peripheral blood mononuclear cell fraction was separated by density gradient centrifugation over Ficoll-Histopaque […] (Sigma). Cells positive for CD2, CD7, CD16, CD19 and CD56 were removed by appropriate magnetic beads (Dynal) leaving > 80% pure monocytes. Isolated monocytes were then cultured at a density of 1.5x10^5 cells/mL in polystyrene culture dishes (100x15mm Petri dish, Falcon) in a serum-free macrophage medium (Macrophage-SFM, Gibco Life Technologies) supplemented with 50ng/mL human recombinant M-CSF (R&D Systems). After an overnight incubation cells were cholesterol loaded for 24 hrs by addition of enzymatically modified LDL (E-LDL; 40 µg/ml), which was prepared as previously described (31). […] Lipids were extracted by liquid extraction according to the method of Bligh and Dyer (13). ^3H and ^14C radioactivities of the total lipid extracts were measured by liquid scintillation counting in order to distinguish between ^3H labeled phospholipids and ^14C-cholesterol. Lipid efflux was calculated as percentage of disintegrations per minute (dpm) in medium divided by the sum of dpm recovered from medium and cells. […]

[2] = tested on: mononuclear phagocytes; assay: ApoA-I mediated cellular cholesterol efflux (14C-cholesterol, E-LDL loaded monocytes); assay type: cell-based, Human; details: forskolin pre-incubation; subjects with polymorphic alleles (596A/A, 2589G/G); result in words
Experimental: as §1

C=C[C@@]1(C)CC(=O)[C@]2(O)[C@@]3(C)[C@@H](O)CCC(C)(C)[C@@H]3[C@H](O)[C@H](OC(C)=O)[C@@]2(C)O1 [forskolin]
phospholipid efflux [1]: abolished the differences; also recorded: able to normalize
cholesterol efflux [2]: normalized cholesterol efflux; also recorded: able to normalize
